According to patent US20120083519A1:
Results are given in words; binding and its absence hold for the method and conditions named. For some assays here: Binding seen in cells or lysates may run through a third protein. Some entries that bind do so weakly or less than the wild type.

Amino acid sequences for entries named in this document (tags omitted). A change or cut given only in a name is not applied to a line headed by its entry. Residues count along the entry.
UniProt P06241, residues 2-537: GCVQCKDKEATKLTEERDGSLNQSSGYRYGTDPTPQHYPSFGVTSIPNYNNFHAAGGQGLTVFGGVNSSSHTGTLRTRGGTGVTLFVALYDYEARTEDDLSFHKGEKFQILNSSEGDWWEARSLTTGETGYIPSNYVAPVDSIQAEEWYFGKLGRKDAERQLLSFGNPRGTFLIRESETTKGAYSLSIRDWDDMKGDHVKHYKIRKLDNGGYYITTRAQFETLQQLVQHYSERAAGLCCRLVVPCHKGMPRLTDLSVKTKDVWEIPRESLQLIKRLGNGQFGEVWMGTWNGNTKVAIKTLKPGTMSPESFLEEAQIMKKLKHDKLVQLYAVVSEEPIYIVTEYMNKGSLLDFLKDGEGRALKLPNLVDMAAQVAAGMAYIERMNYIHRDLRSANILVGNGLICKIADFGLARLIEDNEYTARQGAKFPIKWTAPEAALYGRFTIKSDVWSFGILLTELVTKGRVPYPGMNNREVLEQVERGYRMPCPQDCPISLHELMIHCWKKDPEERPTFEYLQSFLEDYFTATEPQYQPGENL
UniProt P39688, residues 2-537: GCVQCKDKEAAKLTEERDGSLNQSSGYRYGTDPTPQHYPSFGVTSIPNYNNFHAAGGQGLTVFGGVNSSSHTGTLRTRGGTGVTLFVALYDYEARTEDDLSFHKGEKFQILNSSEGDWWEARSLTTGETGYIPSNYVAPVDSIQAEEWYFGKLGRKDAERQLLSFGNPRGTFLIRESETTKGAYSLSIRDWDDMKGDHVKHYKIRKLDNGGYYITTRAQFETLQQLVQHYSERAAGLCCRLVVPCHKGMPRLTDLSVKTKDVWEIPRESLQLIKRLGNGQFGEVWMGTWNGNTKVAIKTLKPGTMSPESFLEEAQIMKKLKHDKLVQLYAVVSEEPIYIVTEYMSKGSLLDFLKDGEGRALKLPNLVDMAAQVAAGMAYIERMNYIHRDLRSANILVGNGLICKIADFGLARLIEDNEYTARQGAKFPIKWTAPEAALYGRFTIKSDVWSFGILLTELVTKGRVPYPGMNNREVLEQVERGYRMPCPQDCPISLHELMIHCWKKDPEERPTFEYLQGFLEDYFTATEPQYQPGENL
UniProt Q8IY22: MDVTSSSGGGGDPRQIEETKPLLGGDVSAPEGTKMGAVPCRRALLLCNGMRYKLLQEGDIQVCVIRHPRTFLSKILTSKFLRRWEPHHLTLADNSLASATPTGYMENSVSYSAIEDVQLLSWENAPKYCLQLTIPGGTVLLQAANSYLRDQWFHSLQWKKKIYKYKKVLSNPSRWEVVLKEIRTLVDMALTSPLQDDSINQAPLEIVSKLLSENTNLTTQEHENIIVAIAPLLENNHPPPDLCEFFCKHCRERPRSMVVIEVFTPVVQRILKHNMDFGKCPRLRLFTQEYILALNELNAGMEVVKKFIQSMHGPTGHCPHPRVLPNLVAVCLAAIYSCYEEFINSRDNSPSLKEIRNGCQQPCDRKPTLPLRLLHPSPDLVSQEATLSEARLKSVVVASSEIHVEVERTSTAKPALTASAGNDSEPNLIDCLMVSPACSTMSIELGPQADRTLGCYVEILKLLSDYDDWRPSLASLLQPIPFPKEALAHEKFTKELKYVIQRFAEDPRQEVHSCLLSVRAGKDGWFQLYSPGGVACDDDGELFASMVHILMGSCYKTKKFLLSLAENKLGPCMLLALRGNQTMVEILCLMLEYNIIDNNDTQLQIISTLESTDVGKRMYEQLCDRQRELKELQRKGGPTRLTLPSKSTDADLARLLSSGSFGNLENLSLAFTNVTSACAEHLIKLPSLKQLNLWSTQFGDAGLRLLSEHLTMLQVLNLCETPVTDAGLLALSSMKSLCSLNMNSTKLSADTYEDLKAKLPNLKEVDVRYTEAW

Experiments:
[1] = target: endogenous Fyn of HEK cells (human) (UniProt P06241); assay: co-immunoprecipitation, HEK cells
[2] = target: Fyn, endogenous, mouse (glomerular extracts) (mouse) (UniProt P39688); assay: cross-immunoprecipitation, glomerular extracts of Tg(+) mice

## C-mip protein (c-maf inducing protein), human, full-length (from UniProt Q8IY22 1-773)
[1]
  binding: binds
[2]
  binding: binds
